Values from PubChem BioAssay AID588781 (Weizmann Institute, 2011)
In all, the deposit lists 85 reagents; shown is a random part of them. 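Knockdowns of interest may either weaken or strengthen the stiffness dependence of elongation, so both low and high differences matter.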 Further read-outs or replicates are left out here. Not stated in the record: the amount of reagent, the time to read-out.

Screen: 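Tyrosine kinases that adjust fibroblast polarity according to substrate rigidity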
Cells: human foreskin fibroblasts (HFF)
Reagents: siRNA against human genes
Conditions: cells plated on fibronectin-coated silicone of high versus low stiffness (range about 2 MPa to 5 kPa)
Read-out: 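Imaging of phalloidin-labelled cells on fibronectin-coated silicone, stiff about 2 MPa or soft about 5 kPa; elongation, stress fibres, stable edges, each also as (stiff − soft)/stiff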
Direction: stiff-soft elongation difference: higher = elongation depends more strongly on substrate stiffness

For PTK7, the entry reads stiff-soft elongation difference 0.21.
Silencing of NTRK3 came out at: stiff-soft elongation difference 0.39.
Depletion of CSK resulted in: stiff-soft elongation difference 0.12.
BMX showed stiff-soft elongation difference 0.28.
Against TYK2 the deposit lists stiff-soft elongation difference 0.29.
TNK1 gave stiff-soft elongation difference 0.32.
For PDGFRB the deposit lists stiff-soft elongation difference 0.32.
With knock-down of ROS1 the results were stiff-soft elongation difference 0.35.
With knock-down of PTK6 the results were stiff-soft elongation difference 0.18.
PDGFRA gave stiff-soft elongation difference 0.24.
Silencing of FGFR4 resulted in: stiff-soft elongation difference 0.07.
Depletion of FRK resulted in: stiff-soft elongation difference 0.16.
Silencing of ITK gave: stiff-soft elongation difference 0.24.
With knock-down of EPHA2, the screen gave stiff-soft elongation difference 0.2.
ROR1 gave stiff-soft elongation difference 0.38.

Laid out differently: 2 of the entries above
{"target gene": "CSK", "stiff-soft elongation difference": 0.12}
{"target gene": "BMX", "stiff-soft elongation difference": 0.28}
